Measurements reported in PubChem BioAssay AID1671195 (Yale University, 2021).

- Test: 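Knockdowns that increase or decrease uptake of fluorescent LDL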 (primary screen)
- Cells: human Huh7 hepatoma cells
- Knock-down reagent: siRNA pool against human genes, 18 nM
- Duration: about 2 to 2.5 days of knockdown, then 8 h LDL uptake
- Challenge: DiI-labelled LDL at 30 µg/ml for 8 h, in lipoprotein-deficient serum medium
- Measured: 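Fluorescent LDL signal imaged in cells, scaled to the plate median, robust z-score for each replicate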
- Scale: robust z-score: higher = more LDL uptake after knockdown
- Rule for the call: 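Active when two or more replicates show a robust z-score above 2 or below -2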
Shown is one part, drawn at random, of about 22,000 reagents tested. Over the whole deposit, about 1,510 (6.9%) got an active call. 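Active includes knockdowns raising or lowering LDL uptake; positive z-scores mean more uptake, negative mean less.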 The numbers tell different reagents against one gene apart.

ZNF688 (zinc finger protein 688) — robust z-score, replicate 1 = -0.464; robust z-score, replicate 2 = -0.897; robust z-score, replicate 3 = -0.0975; activity call = inactive
SLC25A6 — robust z-score, replicate 1 = 2.88; robust z-score, replicate 2 = 3.24; robust z-score, replicate 3 = 0.824; activity call = active
H2AZP2 (H2A.Z histone pseudogene 2) — robust z-score, replicate 1 = 0.628; robust z-score, replicate 2 = 0.996; robust z-score, replicate 3 = 0.829; activity call = inactive
ZNF302 (zinc finger protein 302) — robust z-score, replicate 1 = -0.174; robust z-score, replicate 2 = -0.264; robust z-score, replicate 3 = -0.0555; activity call = inactive
ZNF248 (zinc finger protein 248) — robust z-score, replicate 1 = 0.648; robust z-score, replicate 2 = 1.04; robust z-score, replicate 3 = 0.326; activity call = inactive
H2BC3 (H2B clustered histone 3) — robust z-score, replicate 1 = 0.73; robust z-score, replicate 2 = 0.228; robust z-score, replicate 3 = 0.761; activity call = inactive
MLLT1 (MLLT1 super elongation complex subunit) #1 — robust z-score, replicate 1 = 0.498; robust z-score, replicate 2 = 0.107; robust z-score, replicate 3 = 1.69; activity call = inactive
MLLT1 (MLLT1 super elongation complex subunit) #2 — robust z-score, replicate 1 = -1.13; robust z-score, replicate 2 = -0.399; robust z-score, replicate 3 = -1.04; activity call = inactive
SDHC (succinate dehydrogenase complex subunit C) — robust z-score, replicate 1 = 1.24; robust z-score, replicate 2 = 0.615; robust z-score, replicate 3 = 0.804; activity call = inactive
KCND2 (potassium voltage-gated channel subfamily D member 2) — robust z-score, replicate 1 = -1.11; robust z-score, replicate 2 = -1.23; robust z-score, replicate 3 = -1.24; activity call = inactive
ZNF460 (zinc finger protein 460) — robust z-score, replicate 1 = 0.577; robust z-score, replicate 2 = 0.868; robust z-score, replicate 3 = 0.793; activity call = inactive
LOC339274 (retired record) — robust z-score, replicate 1 = 3.09; robust z-score, replicate 2 = 3.11; robust z-score, replicate 3 = 3.67; activity call = active
ACTRT1 (actin related protein T1) — robust z-score, replicate 1 = -0.33; robust z-score, replicate 2 = 0.532; robust z-score, replicate 3 = 0.793; activity call = inactive
EIF4E1B (eukaryotic translation initiation factor 4E family member 1B) — robust z-score, replicate 1 = -0.662; robust z-score, replicate 2 = -0.61; robust z-score, replicate 3 = -0.72; activity call = inactive
GPR162 (G protein-coupled receptor 162) — robust z-score, replicate 1 = 0.738; robust z-score, replicate 2 = 1.26; robust z-score, replicate 3 = 0.868; activity call = inactive
KCNK4 (potassium two pore domain channel subfamily K member 4) — robust z-score, replicate 1 = -0.169; robust z-score, replicate 2 = 0.0848; robust z-score, replicate 3 = -0.43; activity call = inactive
